Patent US20250241968A1
No constants are given. Whether binding was seen depends on the method and setting. Binding seen in cells or lysates may run through a third protein. Some results given as binding are weak or reduced against the parent protein; the word gives no strength.

Sequences of proteins named here, by UniProt entry; tags and fusion partners are left off. A change or cut given only in a name is not applied to a line headed by its entry. A line that says so, or that is headed by a name, gives the form on record, which may keep a tag or linker. Residues count along the entry.
UniProt Q8BJU0: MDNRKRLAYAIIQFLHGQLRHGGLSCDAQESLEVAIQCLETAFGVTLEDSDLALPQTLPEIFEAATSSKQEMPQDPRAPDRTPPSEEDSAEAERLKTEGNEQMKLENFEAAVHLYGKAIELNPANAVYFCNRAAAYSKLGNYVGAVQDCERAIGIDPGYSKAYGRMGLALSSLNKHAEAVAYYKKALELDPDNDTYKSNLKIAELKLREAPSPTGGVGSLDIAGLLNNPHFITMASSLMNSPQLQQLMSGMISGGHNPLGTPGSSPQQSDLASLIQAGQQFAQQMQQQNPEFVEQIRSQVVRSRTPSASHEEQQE
wild-type Hspa8 (heat shock 70 kDa protein 8) (P63017, residues 2-646): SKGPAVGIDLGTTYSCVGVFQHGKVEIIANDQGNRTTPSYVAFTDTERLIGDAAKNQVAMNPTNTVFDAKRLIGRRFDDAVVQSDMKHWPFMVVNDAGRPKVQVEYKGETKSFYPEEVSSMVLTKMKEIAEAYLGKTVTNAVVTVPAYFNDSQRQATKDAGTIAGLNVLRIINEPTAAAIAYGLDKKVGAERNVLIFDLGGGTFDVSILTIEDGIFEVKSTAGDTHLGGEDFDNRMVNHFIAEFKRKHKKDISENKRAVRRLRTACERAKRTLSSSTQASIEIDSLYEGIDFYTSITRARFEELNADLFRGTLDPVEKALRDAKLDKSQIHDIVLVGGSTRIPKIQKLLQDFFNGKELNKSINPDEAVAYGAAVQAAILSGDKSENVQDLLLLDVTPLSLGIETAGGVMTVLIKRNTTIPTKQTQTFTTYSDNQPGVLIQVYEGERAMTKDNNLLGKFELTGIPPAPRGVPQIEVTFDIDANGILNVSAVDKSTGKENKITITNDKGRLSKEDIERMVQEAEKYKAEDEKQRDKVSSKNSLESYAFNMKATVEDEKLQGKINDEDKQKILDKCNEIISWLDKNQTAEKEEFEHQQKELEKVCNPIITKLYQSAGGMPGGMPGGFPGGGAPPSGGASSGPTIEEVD
Hspa8^G470R variant (P63017, form named): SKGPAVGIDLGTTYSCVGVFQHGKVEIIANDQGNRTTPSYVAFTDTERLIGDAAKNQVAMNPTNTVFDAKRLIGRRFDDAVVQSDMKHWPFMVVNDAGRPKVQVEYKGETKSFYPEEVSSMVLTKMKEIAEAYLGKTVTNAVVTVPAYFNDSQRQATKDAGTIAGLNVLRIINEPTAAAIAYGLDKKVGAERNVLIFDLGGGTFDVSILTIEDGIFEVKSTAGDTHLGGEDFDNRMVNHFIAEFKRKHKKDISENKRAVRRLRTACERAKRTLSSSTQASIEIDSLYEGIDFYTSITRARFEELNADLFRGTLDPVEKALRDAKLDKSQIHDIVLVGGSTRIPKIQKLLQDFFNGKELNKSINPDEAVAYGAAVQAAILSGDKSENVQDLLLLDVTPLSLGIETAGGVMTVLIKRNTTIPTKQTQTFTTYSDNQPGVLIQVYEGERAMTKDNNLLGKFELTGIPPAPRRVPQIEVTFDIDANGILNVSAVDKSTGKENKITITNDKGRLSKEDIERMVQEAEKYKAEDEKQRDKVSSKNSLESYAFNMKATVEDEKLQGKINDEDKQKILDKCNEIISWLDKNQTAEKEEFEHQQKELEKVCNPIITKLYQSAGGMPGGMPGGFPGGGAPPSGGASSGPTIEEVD

Legend:
[1] = molecular target: SGTA (mouse) (UniProt Q8BJU0); test: co-immunoprecipitation, PND9 mouse brain lysate, western blot
[2] = molecular target: T1, CSPα (mouse) (UniProt P60904); test: as above
T1 sequence (looked up): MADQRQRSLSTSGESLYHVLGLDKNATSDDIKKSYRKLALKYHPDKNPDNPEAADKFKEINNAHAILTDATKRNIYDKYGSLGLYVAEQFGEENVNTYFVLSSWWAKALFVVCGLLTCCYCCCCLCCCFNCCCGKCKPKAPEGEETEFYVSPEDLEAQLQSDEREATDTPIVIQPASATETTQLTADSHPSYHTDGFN

[3] = molecular target: SGTA (mouse) (UniProt Q8BJU0); test: co-immunoprecipitation, as summed up in the discussion
[4] = molecular target: T1, CSPα (mouse); test: as above
[5] = molecular target: SGTA (mouse) (UniProt Q8BJU0); test: co-immunoprecipitation, brain lysate of Smn heterozygous control mice, western blot

| Substance | binding [1] | binding [2] | binding [3] | binding [4] | binding [5] |
| --- | --- | --- | --- | --- | --- |
| Hspa8^G470R variant (from UniProt P63017 2-646) | binds | binds | binds | binds |  |
| wild-type Hspa8 (heat shock 70 kDa protein 8) (from UniProt P63017 2-646) |  |  |  |  | binds |
